Values joined by “and” are separate entries in the source; they are usually repeats but may differ in a detail not shown here. Equal values may be shown once. Some of the results follow. Shown are side measurements of this screen, not its main read-out; they come without a call. The list favours compounds with an active or inconclusive main result. Words in brackets tell the shape of the fitted curve; partial curves, single points and poor fits give uncertain potencies.
Experiment: qHTS Assay for Modulators of Lamin A Splicing
Details: HeLa LMNA splicing GFP/RFP minigene ratio, 48 h
How it was run: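 S3 HeLa stable clones carrying a lamin A-EGFP splicing minigene plus DsRed2 were seeded at 600 cells/well in Opti-MEM with 2% FBS, pin-dosed and incubated 48 h at 37°C. Acumen cytometry (488 nm) gave the GFP/RFP total-intensity ratio.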

[1] = measured here: RFP viability control channel
[2] = measured here: GFP splicing reporter channel

SMILES	AC50 [1]	AC50 [2]
COCCCN1C(=O)c2[nH]nc(-c3ccccc3O)c2C1c1cccc(Cl)c1 (stereo unspecified)	2.82 µM [rising, full curve]	
S=C(NCC1CCCO1)NC1CCCC1 (stereo unspecified)		20 µM [falling, partial curve, poor fit]
O=C(NCC(=O)N(Cc1ccccc1)C(C(=O)NC1CCCC1)c1ccncc1)c1ccco1 (stereo unspecified)	11.2 µM [rising, single point]	
C/C(=N\NC(=O)NC1CCCCC1)C1CCCCC1	25.1 µM [falling, partial curve]	
O=[N+]([O-])c1cccc(/C=C/c2nc3ccc([N+](=O)[O-])cc3[nH]2)c1	25.1 µM [falling, partial curve]	20 µM [falling, single point]
C/C=C1/NN(CCCN2CCN(c3cccc(Cl)c3)CC2)C(=O)N1CCOc1ccccc1	0.794 µM [falling, single point]	22.4 µM [falling, single point]
CC(NC(=O)Cc1ccccc1)C(c1ccccc1)N1CCOCC1 (stereo unspecified)	5.01 µM [rising, full curve, poor fit]	5.01 µM [rising, full curve, poor fit]
N=c1n(Cc2ccccc2)c2ccccc2n1CC(O)COc1ccc(Cl)cc1Cl (stereo unspecified)	11.2 µM [falling, partial curve]	17.8 µM [falling, partial curve]
CC(N=C(NC#N)Nc1ccncc1)C(C)(C)C (stereo unspecified)	1.26 µM [rising, full curve, poor fit]	12.6 nM [rising, full curve, poor fit] and 8.91 µM [rising, partial curve, poor fit]
COc1ccc(NC(=O)CSc2ccc3nc(-c4ccccc4)cn3n2)cc1OC	35.5 µM [rising, partial curve, poor fit]	
C/C=C(/C)C(=O)O[C@@H]1[C@H](OC(C)=O)c2c(ccc3ccc(=O)oc23)OC1(C)C		0.316 µM [falling, partial curve, poor fit]
CCCCCCCNC(=O)c1ccc(N2CCC3(CC2)OCCO3)c([N+](=O)[O-])c1	35.5 µM [rising, single point]	31.6 µM [rising, single point]
CC1CCCC(NC(=O)COC(=O)COc2ccccc2Cl)C1C (stereo unspecified)	0.1 µM [falling, full curve]	7.08 µM [falling, partial curve, poor fit]
c1ccc(CCNc2ncnc3ccccc23)cc1	0.0316 µM [rising, full curve, poor fit]	

Copied from the list:
Entry for `O=C(NCC(=O)N(Cc1ccccc1)C(C(=O)NC1CCCC1)c1ccncc1)c1ccco1` (stereo unspecified) under AC50 [1]: 11.2 µM [rising, single point]
Entry for `O=[N+]([O-])c1cccc(/C=C/c2nc3ccc([N+](=O)[O-])cc3[nH]2)c1` under AC50 [2]: 20 µM [falling, single point]

From PubChem BioAssay AID1487 (National Center for Advancing Translational Sciences (NCATS), 2009)
